Like-named read-outs stand apart in the source and are kept apart here. Results are given in words; binding and its absence hold for the method and conditions named. Binding seen in cells or lysates may run through a third protein. Some binding calls cover weakened binding; strength is not graded here.

Chains of the proteins cited; added tags and fusions are not shown.
UniProt P11532: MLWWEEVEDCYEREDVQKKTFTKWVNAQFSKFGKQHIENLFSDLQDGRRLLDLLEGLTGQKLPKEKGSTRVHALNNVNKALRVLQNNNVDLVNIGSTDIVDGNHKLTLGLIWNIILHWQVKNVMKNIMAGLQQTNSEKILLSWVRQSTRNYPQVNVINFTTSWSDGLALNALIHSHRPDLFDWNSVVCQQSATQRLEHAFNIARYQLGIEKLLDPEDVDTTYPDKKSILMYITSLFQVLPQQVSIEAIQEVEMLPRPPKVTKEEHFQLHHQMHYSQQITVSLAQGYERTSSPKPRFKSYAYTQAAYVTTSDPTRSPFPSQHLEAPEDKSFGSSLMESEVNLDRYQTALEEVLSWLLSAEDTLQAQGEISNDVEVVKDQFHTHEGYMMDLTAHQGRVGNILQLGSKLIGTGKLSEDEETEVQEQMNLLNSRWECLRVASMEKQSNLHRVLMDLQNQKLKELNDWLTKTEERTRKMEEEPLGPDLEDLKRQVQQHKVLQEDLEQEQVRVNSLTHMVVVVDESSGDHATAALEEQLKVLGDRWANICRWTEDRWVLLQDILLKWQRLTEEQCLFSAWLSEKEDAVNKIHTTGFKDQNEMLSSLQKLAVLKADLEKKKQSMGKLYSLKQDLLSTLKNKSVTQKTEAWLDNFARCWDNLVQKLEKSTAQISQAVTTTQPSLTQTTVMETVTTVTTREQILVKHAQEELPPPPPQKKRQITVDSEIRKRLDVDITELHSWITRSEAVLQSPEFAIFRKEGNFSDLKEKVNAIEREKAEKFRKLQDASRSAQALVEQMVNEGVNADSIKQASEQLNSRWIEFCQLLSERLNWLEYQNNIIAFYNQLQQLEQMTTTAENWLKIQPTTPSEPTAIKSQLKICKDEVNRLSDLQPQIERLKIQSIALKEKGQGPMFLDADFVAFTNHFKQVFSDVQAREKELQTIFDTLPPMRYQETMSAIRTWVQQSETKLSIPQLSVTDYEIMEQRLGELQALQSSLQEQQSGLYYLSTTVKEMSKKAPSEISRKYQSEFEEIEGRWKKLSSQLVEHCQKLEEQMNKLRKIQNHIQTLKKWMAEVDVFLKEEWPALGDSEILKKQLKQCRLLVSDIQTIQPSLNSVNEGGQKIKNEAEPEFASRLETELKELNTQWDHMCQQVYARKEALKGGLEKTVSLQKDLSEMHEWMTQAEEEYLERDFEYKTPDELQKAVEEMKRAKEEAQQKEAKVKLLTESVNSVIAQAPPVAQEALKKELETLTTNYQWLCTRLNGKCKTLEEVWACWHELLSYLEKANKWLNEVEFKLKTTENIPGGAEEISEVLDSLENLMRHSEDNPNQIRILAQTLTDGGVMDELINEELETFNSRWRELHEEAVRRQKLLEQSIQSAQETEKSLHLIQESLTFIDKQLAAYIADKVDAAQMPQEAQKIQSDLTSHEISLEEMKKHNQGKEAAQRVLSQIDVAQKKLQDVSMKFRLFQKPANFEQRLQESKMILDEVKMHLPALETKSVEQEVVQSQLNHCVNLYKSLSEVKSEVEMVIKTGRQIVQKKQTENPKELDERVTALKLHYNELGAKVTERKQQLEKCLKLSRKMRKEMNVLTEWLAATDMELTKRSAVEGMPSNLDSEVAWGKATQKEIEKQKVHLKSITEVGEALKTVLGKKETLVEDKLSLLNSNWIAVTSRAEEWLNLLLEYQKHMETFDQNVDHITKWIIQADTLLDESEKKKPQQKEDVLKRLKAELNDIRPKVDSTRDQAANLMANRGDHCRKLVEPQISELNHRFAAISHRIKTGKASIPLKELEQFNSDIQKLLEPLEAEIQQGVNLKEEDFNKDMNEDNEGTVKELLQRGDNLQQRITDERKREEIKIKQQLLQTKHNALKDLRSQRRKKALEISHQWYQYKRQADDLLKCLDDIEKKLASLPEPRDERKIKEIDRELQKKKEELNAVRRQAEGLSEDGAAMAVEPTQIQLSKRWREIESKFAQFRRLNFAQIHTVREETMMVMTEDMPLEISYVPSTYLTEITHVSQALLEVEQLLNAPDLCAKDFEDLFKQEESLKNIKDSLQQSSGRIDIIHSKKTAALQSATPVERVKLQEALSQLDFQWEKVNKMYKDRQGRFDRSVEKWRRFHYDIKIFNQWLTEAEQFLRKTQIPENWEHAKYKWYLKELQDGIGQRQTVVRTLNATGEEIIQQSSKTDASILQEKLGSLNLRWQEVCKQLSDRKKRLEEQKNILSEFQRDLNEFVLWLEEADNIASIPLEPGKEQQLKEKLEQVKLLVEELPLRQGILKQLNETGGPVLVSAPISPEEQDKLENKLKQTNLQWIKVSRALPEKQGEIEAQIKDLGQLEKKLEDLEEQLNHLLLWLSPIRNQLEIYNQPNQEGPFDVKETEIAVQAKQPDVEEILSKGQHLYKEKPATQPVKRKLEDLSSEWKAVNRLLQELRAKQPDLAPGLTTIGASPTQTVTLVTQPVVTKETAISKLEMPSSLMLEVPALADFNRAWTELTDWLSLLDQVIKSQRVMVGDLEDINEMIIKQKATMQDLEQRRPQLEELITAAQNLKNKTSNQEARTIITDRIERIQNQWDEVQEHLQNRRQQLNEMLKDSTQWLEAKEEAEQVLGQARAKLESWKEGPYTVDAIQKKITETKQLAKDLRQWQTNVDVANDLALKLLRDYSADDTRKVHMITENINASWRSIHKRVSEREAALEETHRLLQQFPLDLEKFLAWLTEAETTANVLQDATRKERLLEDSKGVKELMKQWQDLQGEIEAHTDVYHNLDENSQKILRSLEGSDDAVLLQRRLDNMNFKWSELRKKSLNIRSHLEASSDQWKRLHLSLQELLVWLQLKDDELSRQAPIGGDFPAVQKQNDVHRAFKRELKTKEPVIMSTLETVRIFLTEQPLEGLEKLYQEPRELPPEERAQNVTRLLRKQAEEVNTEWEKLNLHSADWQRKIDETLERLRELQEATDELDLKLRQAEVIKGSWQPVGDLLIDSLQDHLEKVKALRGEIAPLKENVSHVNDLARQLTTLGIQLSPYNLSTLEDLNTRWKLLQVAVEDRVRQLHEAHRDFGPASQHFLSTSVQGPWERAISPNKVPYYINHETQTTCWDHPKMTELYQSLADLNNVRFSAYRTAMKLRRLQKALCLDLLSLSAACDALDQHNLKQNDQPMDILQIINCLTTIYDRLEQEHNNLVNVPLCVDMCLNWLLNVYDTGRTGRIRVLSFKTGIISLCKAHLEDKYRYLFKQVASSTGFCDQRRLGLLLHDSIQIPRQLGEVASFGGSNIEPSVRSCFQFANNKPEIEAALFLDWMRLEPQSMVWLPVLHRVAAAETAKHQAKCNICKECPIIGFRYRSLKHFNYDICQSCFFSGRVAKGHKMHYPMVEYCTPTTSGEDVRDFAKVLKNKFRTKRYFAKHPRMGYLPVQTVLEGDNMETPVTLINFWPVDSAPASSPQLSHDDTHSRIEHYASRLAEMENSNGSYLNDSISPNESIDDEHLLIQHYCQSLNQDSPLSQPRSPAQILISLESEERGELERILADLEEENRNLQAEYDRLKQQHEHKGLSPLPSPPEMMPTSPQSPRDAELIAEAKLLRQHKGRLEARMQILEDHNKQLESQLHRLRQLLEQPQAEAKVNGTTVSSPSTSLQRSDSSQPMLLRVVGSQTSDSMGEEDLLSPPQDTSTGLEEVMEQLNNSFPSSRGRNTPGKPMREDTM

Assay [1] concerns the target Dystrophin (human heart) (human (endogenous in cardiac biopsy)) (UniProt P11532). The assay can be described thus: co-IP; DYS-IP (MANDYS1 cross-linked to protein G magnetic beads) from human cardiac biopsy (ventricular tissue) lysate, Western blot. On the technique in general: A western blot detects proteins with antibodies after separation by electrophoresis.
For assay [2], the target named is T1, β-dystroglycan (mouse (endogenous in cardiac and skeletal muscle)) (UniProt Q62165).
T1 sequence: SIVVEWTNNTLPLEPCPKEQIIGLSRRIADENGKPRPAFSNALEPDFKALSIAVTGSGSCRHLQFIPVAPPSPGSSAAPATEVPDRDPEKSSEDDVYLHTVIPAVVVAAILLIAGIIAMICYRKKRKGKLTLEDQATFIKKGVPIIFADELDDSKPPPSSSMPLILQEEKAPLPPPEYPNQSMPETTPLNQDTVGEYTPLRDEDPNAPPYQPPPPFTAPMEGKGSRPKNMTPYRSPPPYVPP
The assay can be described thus: co-IP; MANDAG2 (anti-β-dystroglycan) IP from wild type mouse heart lysate, Western blot.

The target in assay [3] is Dystrophin (mouse (endogenous in cardiac and skeletal muscle)) (UniProt P11531). Briefly: co-IP; DYS-IP (MANDYS1) and control IgG-IP, Western blot for α- and β-dystroglycan (Figure 1C); the tissue is not named in the legend.
For assay [4] the target is unchanged. The assay can be described thus: co-IP; DYS-IP (MANDYS1 cross-linked to protein G magnetic beads) from wild type mouse skeletal muscle (quadriceps) lysate, 3 hr at 4°C, Western blot; controls IgG-IP and mdx muscle.
Assay [5] shares this target. Briefly: co-IP; DYS-IP (MANDYS1 cross-linked to protein G magnetic beads) from wild type mouse cardiac muscle lysate, 3 hr at 4°C, Western blot; controls IgG-IP and mdx.
Assay [6] concerns the target Dystrophin (human heart) (human (endogenous in cardiac biopsy)) (UniProt P11532). Briefly: co-IP; DYS-IP (MANDYS1 cross-linked to protein G magnetic beads) from human cardiac biopsy (ventricular tissue) lysate, Western blot. The source holds these as a separate data set.

“Ahnak1 (human heart) (from UniProt Q09666 1-5890)”: the binding result in assay [1] is listed as “binds”.
Consider Dystrophin (from UniProt P11531 1-3678), for which the binding result in assay [2] is on record as “binds”.

B1: α-dystroglycan (protein, UniProt Q62165 28-651)
chain: HWPSEPSEAVRDWKNQLEASMHSVLSDFQEAVPTVVGIPDGTAVVGRSFRVSIPTDLIASSGEIIKVSAAGKEALPSWLHWDPHSHILEGLPLDTDKGVHYISVSAARLGANGSHVPQTSSVFSIEVYPEDHNEPQSVRAASSDPGEVVPSACAADEPVTVLTVILDADLTKMTPKQRIDLLNRMQSFSEVELHNMKLVPVVNNRLFDMSAFMAGPGNAKKVVENGALLSWKLGCSLNQNSVPDIRGVETPAREGAMSAQLGYPVVGWHIANKKPTLPKRLRRQIHATPTPVTAIGPPTTAIQEPPSRIVPTPTSPAIAPPTETMAPPVRDPVPGKPTVTIRTRGAIIQTPTLGPIQPTRVSEAGTTVPGQIRPTLTIPGYVEPTAVITPPTTTTKKPRVSTPKPATPSTDSSTTTTRRPTKKPRTPRPVPRVTTKAPITRLETASPPTRIRTTTSGVPRGGEPNQRPELKNHIDRVDAWVGTYFEVKIPSDTFYDNEDTTTDKLKLTLKLREQQLVGEKSWVQFNSNSQLMYGLPDSSHVGKHEYFMHATDKGGLSAVDAFEIHVHKRPQGDKAPARFKARLAGDPAPVVNDIHKKIALVKKLAFAFGDRNCSSITLQNITRG
B1: in assay [3], the binding result is listed as “binds”.

B2: α1-dystrobrevin (natural protein, UniProt Q9D2N4 1-746, looked up)
chain: MIEDSGKRGNTMAERRQLFAEMRAQDLDRIRLSTYRTACKLRFVQKKCNLHLVDIWNVIEALRENALNNLDPNIELNVARLEAVLSTIFYQLNKRMPTTHQIHVEQSISLLLNFLLAAFDPEGHGKISVFAVKMALATLCGGKIMDKLRYIFSMISDSSGVMVYGRYDQFLREVLKLPTAVFEGPSFGYTEQSARSCFSQQKKVTLNGFLDTLMSDPPPQCLVWLPLLHRLANVENVFHPVECSYCHSESMMGFRYRCQQCHNYQLCQDCFWRGHAGGSHSNQHQMKEYTSWKSPAKKLTNALSKSLSCASSREPLHPMFPDQPEKPLNLAHIVPPRPVTSMNDTLFSHSVPSSGSPFITRSSPPKDSEVEQNKMLARAAPAFLKGRGIQYSLNVADRLADEHVLIGLYVNMLRNDPPCMLESSNRLDEEHRLIARYAARLAAESSSSQPTQQRSAPDISFTIDANKQQRQLIAELENKNREILQEIQRLRVEHEQASQPTPEKAQQNPTLLAELRLLRQRKDELEQRMSALQESRRELMVQLEGLMKLLKEEELKQGTQGASSPRSSPSHTISRPIPMPIRSASACPTPTHTPQDSLTGVGGDVQEAFAQSSRRNLRSDLLVAADSITNTMSSLVKELNSEVASETESTVDSEFSRPQFEDLAPSPTSEKAFLAQIHSRKPGYIHGGAASTTHGDMVPEDGDPYTQPEDGNYENESVRQLENELQLEEYLKQKLQDEAYQVSLQG
notes: α-dystrobrevin splice variant α1, mouse; told apart on blots by molecular weight with a pan α-dystrobrevin antibody; also called DTNA1; source: endogenous, mouse cardiac ventricle and skeletal muscle (quadriceps) lysate
Take B2: the binding entry in assay [4] is “binds”.

B3: α1-Syntrophin (protein, UniProt Q61234 1-503)
chain: MASGRRAPRTGLLELRCGAGSGAGGERWQRVLLSLAEDALTVSPADGEPGPEPEPAQLNGAAEPGAAPPQLPEALLLQRRRVTVRKADAGGLGISIKGGRENKMPILISKIFKGLAADQTEALFVGDAILSVNGEDLSSATHDEAVQALKKTGKEVVLEVKYMKEVSPYFKNSAGGTSVGWDSPPASPLQRQPSSPGPQPRNLSEAKHVSLKMAYVSRRCTPTDPEPRYLEICAADGQDAVFLRAKDEASARSWAGAIQAQIGTFIPWVKDELQALLTATGTAGSQDIKQIGWLTEQLPSGGTAPTLALLTEKELLFYCSLPQSREALSRPTRTAPLIATSSAHRLVHSGPSKGSVPYDAELSFALRTGTRHGVDTHLFSVESPQELAAWTRQLVDGCHRAAEGIQEVSTACTWNGRPCSLSVHIDKGFTLWAAEPGAARAMLLRQPFEKLQMSSDDGTSLLFLDFGGAEGEIQLDLHSCPKTMVFIIHSFLSAKVTRLGLLA
With B3, the binding result in assay [5] and in assay [4] was “binds” throughout.

B4: β2-syntrophin (human heart) (protein, UniProt Q13425 1-540)
chain: MRVAAATAAAGAGPAMAVWTRATKAGLVELLLRERWVRVVAELSGESLSLTGDAAAAELEPALGPAAAAFNGLPNGGGAGDSLPGSPSRGLGPPSPPAPPRGPAGEAGASPPVRRVRVVKQEAGGLGISIKGGRENRMPILISKIFPGLAADQSRALRLGDAILSVNGTDLRQATHDQAVQALKRAGKEVLLEVKFIREVTPYIKKPSLVSDLPWEGAAPQSPSFSGSEDSGSPKHQNSTKDRKIIPLKMCFAARNLSMPDLENRLIELHSPDSRNTLILRCKDTATAHSWFVAIHTNIMALLPQVLAELNAMLGATSTAGGSKEVKHIAWLAEQAKLDGGRQQWRPVLMAVTEKDLLLYDCMPWTRDAWASPCHSYPLVATRLVHSGSGCRSPSLGSDLTFATRTGSRQGIEMHLFRVETHRDLSSWTRILVQGCHAAAELIKEVSLGCMLNGQEVRLTIHYENGFTISRENGGSSSILYRYPFERLKMSADDGIRNLYLDFGGPEGELTMDLHSCPKPIVFVLHTFLSAKVTRMGLLV
As for B4, the binding entry in assay [6] was “binds”.

B5: α1-dystrobrevin (human heart) (protein, UniProt Q9Y4J8 1-743)
chain: MIEDSGKRGNTMAERRQLFAEMRAQDLDRIRLSTYRTACKLRFVQKKCNLHLVDIWNVIEALRENALNNLDPNTELNVSRLEAVLSTIFYQLNKRMPTTHQIHVEQSISLLLNFLLAAFDPEGHGKISVFAVKMALATLCGGKIMDKLRYIFSMISDSSGVMVYGRYDQFLREVLKLPTAVFEGPSFGYTEQSARSCFSQQKKVTLNGFLDTLMSDPPPQCLVWLPLLHRLANVENVFHPVECSYCHSESMMGFRYRCQQCHNYQLCQDCFWRGHAGGSHSNQHQMKEYTSWKSPAKKLTNALSKSLSCASSREPLHPMFPDQPEKPLNLAHIVDTWPPRPVTSMNDTLFSHSVPSSGSPFITRSSPPKDSEVEQNKLLARAAPAFLKGKGIQYSLNVADRLADEHVLIGLYVNMLRNNPSCMLESSNRLDEEHRLIARYAARLAAESSSSQPPQQRSAPDISFTIDANKQQRQLIAELENKNREILQEIQRLRLEHEQASQPTPEKAQQNPTLLAELRLLRQRKDELEQRMSALQESRRELMVQLEGLMKLLKTQGAGSPRSSPSHTISRPIPMPIRSASACSTPTHTPQDSLTGVGGDVQEAFAQSSRRNLRNDLLVAADSITNTMSSLVKELNSEVGSETESNVDSEFARTQFEDLVPSPTSEKAFLAQIHARKPGYIHSGATTSTMRGDMVTEDADPYVQPEDENYENDSVRQLENELQMEEYLKQKLQDEAYQVSLQG
Regarding B5, the binding result in assay [6] is on record as “binds”.

B6: β1-Syntrophin (natural protein, UniProt Q99L88 1-537, looked up)
chain: MAVAAAAVAAPAGGGGARAQRSGLLEVLVRDRWHKVLVNLSEDALVLSCEEGAAAYNGIGAATNGSFCRGSGTGHPVPGVAQAPDSPAGVRTAFTDLPEQVPESISNQKRGVKVLKQELGGLGISIKGGKENKMPILISKIFKGLAADQTQALYVGDAILSVNGADLRDATHDEAVQALKRAGKEVLLEVKYMREATPYVKKGSPVSEIGWETPPPESPRLGGGSAEPLSSQSFSFHRDRKSIPLKMCYVTRNMTLADPENRQLEIHSPDAKHTVILRSKDSATAQAWFSAIHSNAGDLLTRVVADIREQLGKTGIAGSREIRHLGWLAEKVPGESEKQWKPALVVLTEKDLLIYDSMPRRKEAWFSPVHSYPLLATRLVHSGPGKGSPQAGMDLSFATRTGTKQGIETHLFRAEISRDLSHWTRSIVQGCHNSAELTAEITTACTYRNQECRLTIHYDNGFSISTEPQDGAFPKTIIQSPYEKLKMSSDDGIRMLYLDFGGKEGEIQLDLHSCPKPIVFIIHSFLSAKITRLGLVA
notes: β1-syntrophin, mouse; source: endogenous, mouse cardiac ventricle and skeletal muscle (quadriceps) lysate
With B6, in assay [4], the binding entry was “binds”.

B7: β-dystroglycan (protein, UniProt Q62165 652-893)
chain: T1 sequence
For B7, the binding entry in assay [4] and in assay [3] was “binds” throughout.

The values are drawn from PMC3427372, “Proteomic Analysis Reveals New Cardiac-Specific Dystrophin-Associated Proteins” (PLoS ONE, 2012).
